Out of some 350,000 compounds screened, about 220 (0.063%) were called active. Inconclusive means that the source gave no clear call. Such entries were picked first, then a sample of the others. Calls follow the shape of the dose curve; as a rule, active = well fitted activation curve with a large enough effect; inconclusive = small, poorly fitted or top-dose-only effect; inactive = no such curve, though single readings can be large or run the other way. Potencies beside an inconclusive call are fits to weak or partial responses and may not hold up.
Test: qHTS for Activators of Integrin-Mediated Alleviation for Muscular Dystrophy; also: nearly all actives have a fitted effect of over 60% in size;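 as to activation: 100% = response of the positive control SU9516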
Details: alpha7betagal myoblasts, beta-gal FDG fluorescence, 48 h; activation: at 38.3 µM (top of the series)
Method in brief: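 alpha7betagal+/- myoblasts (passage 13, 250/well) treated 48 h at 37C with compounds at 1:260 dilution of DMSO stock. Lysed, then beta-galactosidase activity read as FDG fluorescence (ex 480/em 540) after 30 min, with pre-read for autofluorescence.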
Potency is read from the fitted curve at half-maximal effect.

Potency, inactive:
COc1ccc(N(C)C(=O)CCC(=O)Nc2ccc3nc(N4CCOCC4)cc(C)c3c2)c(OC)c1
Cn1cnc([N+](=O)[O-])c1S(=O)(=O)c1ccc(Cl)cc1
CC(Oc1ccc(Cl)cc1Cl)C(=O)Nc1cccnc1 (stereo unspecified)
CN(CCCCN1CCOCC1)Cc1nc(-c2ccc3c(c2)OCO3)no1
CCOC(=O)c1ccc(NC(=O)c2ccc(NC(=O)c3ccccc3)cc2)cc1
Cc1ccc(C(=O)NC(=S)NCc2ccco2)cc1
CC(=O)c1cnc(Nc2ccccc2)s1
CC(C)[C@H]1COC(NC2=N[C@@H](C(C)C)CO2)=N1
CC(C)NC(=O)C1CCN(C2CCN(C(=O)Cc3ccc4c(c3)OCO4)CC2)CC1
Brc1cccc(CNc2nc3ccccc3n2CCN2CCCCC2)c1
Cc1ccc(NC(=S)NN2CCOCC2)c(C)c1
Cc1cc(C)c(S(=O)(=O)N2CCN(S(=O)(=O)N3CCC(C)CC3)CC2)c(C)c1
NNC(=S)Nc1ccc(OC(F)(F)F)cc1
O=C(NC(=S)N1CCCC1)c1cccc([N+](=O)[O-])c1
O=C(c1ccc(-c2ccccc2Cl)o1)N1CCCC(C(F)(F)F)C1 (stereo unspecified)
COc1ccccc1Nc1nnc(SCC(=O)NC(=O)Nc2ccc3c(c2)OCCO3)s1

Potency, inconclusive:
O=C(NC1CCCCCCC1)c1ccc(Br)cc1 2 µM [activator, partial curve, poor fit]
COc1ccc(C(=O)n2cc(C(C)=O)c3ccccc32)cc1 11.2 µM [activator, single point]
Cc1ccc(S(=O)(=O)N(C)c2ccc(OCC(=O)Nc3nnc(C4CC4)s3)cc2)cc1 7.94 µM [activator, partial curve, poor fit]
CCOC(=O)C1=C(O)C(=O)N(Cc2ccc(C(C)(C)C)cc2)CC1 0.891 µM [activator, full curve, poor fit]
COCCNC(=O)C(OC(=O)c1ccco1)c1ccc(OC)cc1 (stereo unspecified) 10 µM [activator, partial curve, poor fit]
CCCNc1nc2ccccc2n2c(C)nnc12 11.2 µM [activator, single point]
S=C(NCc1ccco1)N/N=C/c1ccncc1 2.82 µM [activator, single point]
O=C(NCc1ccc2c(c1)OCO2)NC1CCCCC1 5.01 µM [activator, single point]
COc1ccc(NC2c3ccccc3C(=O)N2c2ccccn2)cc1 (stereo unspecified) 2 µM [activator, single point]
COc1ccc(/C=N/N2CCOCC2)cc1COc1ccc(F)cc1 1.26 µM [activator, partial curve, poor fit]
N#Cc1ccc(COC(=O)C2CCC(=O)N2)cc1 (stereo unspecified) 28.2 µM [activator, single point]
COc1cccc(C(=O)Nc2nc(-c3ccncc3)cs2)c1 11.2 µM [activator, single point]
O=C1C(=O)N(CCO)C(c2ccccc2[N+](=O)[O-])/C1=C(\O)c1ccccc1 (stereo unspecified) 10 µM [activator, single point]
CCOc1ccccc1N(C)S(=O)(=O)c1ccc2c(c1)N(C(C)=O)CCO2 28.2 µM [activator, single point]
O=[N+]([O-])c1cccc(NC(=S)N2CCN(S(=O)(=O)c3ccccc3)CC2)c1 4.47 µM [activator, single point]
CCc1c(C)nc(SCC(=O)NNC(=O)c2ccco2)[nH]c1=O 28.2 µM [activator, single point]
O=C1COc2ccc(C(=O)COC(=O)c3ccc(F)cc3Cl)cc2N1 5.01 µM [activator, single point]
Cc1noc(C)c1COC(=O)c1cccc(N(C)C)c1 28.2 µM [activator, single point]
Cc1cc(Nc2ccc(C(=O)N3CCCCC3)cc2)c2cccc(C)c2n1 11.2 µM [activator, partial curve, poor fit]
CCOC(=O)N1CCN(S(=O)(=O)N2CCCC(C(=O)NCCc3ccc(Cl)cc3)C2)CC1 (stereo unspecified) 5.01 µM [activator, single point]
Cc1cc2c(=O)n(C)c(SCC(=O)Nc3ccc(F)cc3)nc2s1 3.16 µM [activator, single point]
Cc1cc(C)n(Cc2cc(C(=O)O)c3ccccc3n2)n1 14.1 µM [activator, single point]
COc1ccc(NC(=O)c2c(SC)nsc2SC)cc1 3.16 µM [activator, partial curve, poor fit]
Cc1ccc(C(=O)OCC(=O)N2CCCCCC2)c(O)c1 1.12 µM [activator, partial curve, poor fit]
C/C(=C\c1ccccc1F)C(=O)c1c(C)cc(C)[nH]c1=O 5.01 µM [activator, single point]
O=C(c1ccco1)N(Cc1cccc(Br)c1)C1CCS(=O)(=O)C1 (stereo unspecified) 28.2 µM [activator, single point]
O=C(Nc1ccnn1C1CCN(Cc2ccccc2F)CC1)C1CCCC1 11.2 µM [activator, single point]
COc1cc(-n2c(C)nc3cc(C(=O)O)ccc32)cc(OC)c1OC 6.31 µM [activator, partial curve, poor fit]
Cc1ccc(S(=O)(=O)N/N=C/c2cccc3nccnc23)cc1 3.16 µM [activator, single point]

A stretch from further up:
Potency, inconclusive:
COc1ccc(/C=N/N2CCOCC2)cc1COc1ccc(F)cc1 1.26 µM [activator, partial curve, poor fit]
N#Cc1ccc(COC(=O)C2CCC(=O)N2)cc1 (stereo unspecified) 28.2 µM [activator, single point]

Following part:

activation, inconclusive:
Cc1ccc(NC(=O)C2CC(=O)N(c3ccccc3Cl)C2)cc1S(=O)(=O)N1CCOCC1 (stereo unspecified) -39.1% [activator]
